The target of the assay is T1, mouse OX40 (mouse) (UniProt P47741).
T1 sequence (looked up): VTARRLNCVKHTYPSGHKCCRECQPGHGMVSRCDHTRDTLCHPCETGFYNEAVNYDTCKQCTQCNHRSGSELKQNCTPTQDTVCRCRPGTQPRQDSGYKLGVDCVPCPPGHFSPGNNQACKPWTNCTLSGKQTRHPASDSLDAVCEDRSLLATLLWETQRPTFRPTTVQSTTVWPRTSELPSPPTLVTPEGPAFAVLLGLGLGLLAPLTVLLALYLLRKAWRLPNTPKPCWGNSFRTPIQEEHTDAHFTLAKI
The assay is described as follows: flow cytometry on 293T cells expressing mouse OX40, MFI against protein concentration. For orientation: Flow cytometry measures light scatter and fluorescence of single cells or particles in a stream.

Protein sequences, listed by entry. Tags and fused reporters are not part of them. Lines headed by an entry give the natural chain unless they say otherwise; changes in a name come on top.
UniProt P43488: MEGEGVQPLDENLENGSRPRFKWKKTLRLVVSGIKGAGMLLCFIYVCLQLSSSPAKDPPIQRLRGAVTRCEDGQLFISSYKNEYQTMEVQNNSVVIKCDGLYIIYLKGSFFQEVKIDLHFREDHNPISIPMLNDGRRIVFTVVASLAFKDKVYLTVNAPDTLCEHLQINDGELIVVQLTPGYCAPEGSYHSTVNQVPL

These are yes or no findings as the source states them, for the method shown. Some binding calls cover weakened binding; strength is not graded here.

Take “hFcγ1•OX40L (T) (from UniProt P43488 49-198) (Fc fusion)”: the binding result was “binds”.

The record behind these values is patent publication US20160347846A1.
